We go through 3 molecules from US10196356B2, “Mixed disulfide conjugates of thienopyridine compounds and uses thereof” (The Regents of the University of Michigan, priority 2013, dated 2019).

The nature of data set [1]: Kinetics for the reduction of the mixed disulfide conjugates of clopidogrel by GSH (conversion to the AM). Type of data set: in vitro ADME. The settings on record: 1 mM GSH, cytosol. The method, then:
The mixed disulfide conjugates were prepared from the reaction mixtures containing 1 mg/ml HLM, 0.1 mM 2-oxoclopidogrel, the NADPH-regenerating system and various thiol reductants and purified using SPE C18 cartridges as described in Materials and Methods. The purified conjugates were then mixed with 1 mM GSH and 0.2 mg/ml cytosol (when present). The conjugate remaining and the AM formed were analyzed using LC-MS/MS. Legend: (A) reduction of the conjugates of BME (◯), CPT (▪), NAC (▾), DFT (▴), and NPT (□) by 1 mM GSH in the presence of 0.2 mg/ml cytosol. (B) reduction of the CPT conjugate by 1 mM GSH in the presence and absence of 0.2 mg/ml cytosol. Legend: (◯), formation of AM in the absence of cytosol; (Δ), formation of the AM in the presence of cytosol; (●), reduction of the conjugate in the absence of cytosol; (▴), reduction of the conjugate in the presence of cytosol. The solid and dashed lines are non-linear curve fittings to a single exponential function.
To examine the reactivity of the mixed disulfide conjugates, the kinetics for the reduction of the mixed disulfide conjugates by GSH were determined. The mixed disulfide conjugates were generated in 1 ml of 50 mM KPi buffer (pH 7.4) buffer containing 1 mg/ml HLM, 0.1 mM 2-oxoclopidogrel and 0.3 or 1 mM thiol reductants. […] The amounts of the mixed disulfide conjugates and the AM were analyzed using LC-MS/MS as described above.

A short description of data set [2]: Formation of active metabolite H4 from the mixed disulfide conjugates (AM-MP derivatives, LC-MS/MS). Type of data set: in vitro ADME. The settings on record: thiol-exchange, MPB derivatisation.

With `COC(=O)C(c1ccccc1Cl)N1CCC(SSc2ccc(Cl)nn2)/C(=C\C(=O)O)C1` (centres unmarked) [Clop-CPT], the “reactivity toward GSH relative to the BME conjugate” value in data set [1] was 20 fold. Besides, the “stereoisomers of the AM released from the conjugate (H4 formation)” value in data set [2] was “selective formation of the active isomer H4”.
On the same counts, the results for `COC(=O)[C@H](c1ccccc1Cl)N1CCC(SSc2cc(C)oc2C)C(=CC(=O)O)C1` (some centres unmarked) [DFT conjugate] are 10 fold and “produced the cis isomers of the AM”.
In the case of `COC(=O)C(c1ccccc1Cl)N1CCC(SSc2ncccc2[N+](=O)[O-])C(=CC(=O)O)C1` (centres unmarked) [NPT conjugate], the “stereoisomers of the AM released from the conjugate (H4 formation)” value in data set [2] is “selective formation of the active isomer H4”.
